The other results are listed elsewhere or left out.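 Rule for the calls: active = dose-dependent thermal stabilisation significant by F-test of dose-response against flat model at 10% FDR; inactive = not significant.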
What follows are targets tested with Nc1nc2c(ncn2[C@@H]2O[C@H](COP(=O)(O)OP(=O)(O)OP(=O)(O)O)[C@@H](O)[C@H]2O)c(=O)[nH]1 (assay: dose-dependent thermal stabilisation call (2D-TPP, DLPTP, 10% FDR) (binary (1 = stabilised)); higher = stabilised by the compound). Details: system: Jurkat gel-filtered lysate; concentration range 1-500 µM.

Chains of the proteins cited; added tags and fusions are not shown. Lines headed by an entry give the natural chain unless they say otherwise; changes in a name come on top.
UniProt P08134, whole entry: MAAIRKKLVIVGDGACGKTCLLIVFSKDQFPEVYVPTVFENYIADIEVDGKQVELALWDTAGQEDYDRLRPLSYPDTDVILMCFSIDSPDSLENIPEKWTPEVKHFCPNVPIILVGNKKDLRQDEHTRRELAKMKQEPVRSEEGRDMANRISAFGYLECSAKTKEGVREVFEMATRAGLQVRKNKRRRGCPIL
UniProt Q53H47: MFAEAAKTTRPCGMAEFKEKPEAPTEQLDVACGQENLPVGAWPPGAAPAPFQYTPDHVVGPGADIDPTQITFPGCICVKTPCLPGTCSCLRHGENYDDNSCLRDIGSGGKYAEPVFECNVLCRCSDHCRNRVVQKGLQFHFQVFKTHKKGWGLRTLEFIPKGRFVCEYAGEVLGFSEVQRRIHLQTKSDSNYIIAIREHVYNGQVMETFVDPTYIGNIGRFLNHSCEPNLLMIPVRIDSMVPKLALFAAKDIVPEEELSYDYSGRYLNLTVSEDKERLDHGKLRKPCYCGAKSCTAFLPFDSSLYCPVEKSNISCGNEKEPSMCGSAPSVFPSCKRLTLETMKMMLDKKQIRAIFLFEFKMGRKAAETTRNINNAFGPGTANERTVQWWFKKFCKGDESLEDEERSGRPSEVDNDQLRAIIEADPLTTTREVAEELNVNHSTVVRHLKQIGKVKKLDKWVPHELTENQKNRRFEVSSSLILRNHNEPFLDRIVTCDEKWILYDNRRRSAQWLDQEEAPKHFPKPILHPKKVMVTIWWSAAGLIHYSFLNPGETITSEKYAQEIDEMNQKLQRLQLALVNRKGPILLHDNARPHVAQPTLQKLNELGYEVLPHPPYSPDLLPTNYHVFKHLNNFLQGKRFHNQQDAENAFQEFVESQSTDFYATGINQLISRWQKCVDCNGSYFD
UniProt Q9BY42: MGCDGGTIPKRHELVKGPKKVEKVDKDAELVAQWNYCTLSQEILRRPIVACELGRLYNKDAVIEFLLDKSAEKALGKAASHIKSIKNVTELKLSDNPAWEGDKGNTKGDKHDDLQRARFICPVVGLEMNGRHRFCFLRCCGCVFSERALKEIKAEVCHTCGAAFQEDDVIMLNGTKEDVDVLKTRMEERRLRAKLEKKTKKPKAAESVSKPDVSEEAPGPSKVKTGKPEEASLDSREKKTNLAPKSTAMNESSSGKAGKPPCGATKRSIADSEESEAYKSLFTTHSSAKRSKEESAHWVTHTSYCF
UniProt P82979: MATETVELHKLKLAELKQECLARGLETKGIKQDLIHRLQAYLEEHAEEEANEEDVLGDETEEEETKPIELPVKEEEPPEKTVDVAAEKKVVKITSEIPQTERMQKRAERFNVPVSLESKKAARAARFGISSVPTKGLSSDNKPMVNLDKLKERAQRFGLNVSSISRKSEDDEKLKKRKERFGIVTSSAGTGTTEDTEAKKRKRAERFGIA
UniProt Q9BRK5: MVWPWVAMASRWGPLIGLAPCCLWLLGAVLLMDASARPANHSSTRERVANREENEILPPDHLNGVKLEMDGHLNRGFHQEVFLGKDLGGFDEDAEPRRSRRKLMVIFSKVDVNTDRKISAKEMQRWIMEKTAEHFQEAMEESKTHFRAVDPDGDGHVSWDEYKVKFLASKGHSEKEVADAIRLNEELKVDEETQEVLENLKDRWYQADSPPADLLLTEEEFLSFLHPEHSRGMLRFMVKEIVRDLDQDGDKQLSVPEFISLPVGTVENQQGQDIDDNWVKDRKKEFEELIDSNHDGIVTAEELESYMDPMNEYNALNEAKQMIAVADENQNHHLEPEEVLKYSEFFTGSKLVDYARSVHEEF
UniProt O00442: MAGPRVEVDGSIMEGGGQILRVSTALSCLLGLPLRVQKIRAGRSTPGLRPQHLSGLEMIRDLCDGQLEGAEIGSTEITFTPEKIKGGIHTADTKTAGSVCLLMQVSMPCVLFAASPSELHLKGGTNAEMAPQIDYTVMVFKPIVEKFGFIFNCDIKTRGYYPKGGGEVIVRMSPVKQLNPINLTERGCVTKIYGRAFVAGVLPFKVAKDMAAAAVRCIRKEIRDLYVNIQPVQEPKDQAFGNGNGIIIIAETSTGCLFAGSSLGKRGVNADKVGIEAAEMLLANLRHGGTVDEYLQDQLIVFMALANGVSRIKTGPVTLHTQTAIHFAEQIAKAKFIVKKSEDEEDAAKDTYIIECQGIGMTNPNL
UniProt Q8IZQ5, whole entry: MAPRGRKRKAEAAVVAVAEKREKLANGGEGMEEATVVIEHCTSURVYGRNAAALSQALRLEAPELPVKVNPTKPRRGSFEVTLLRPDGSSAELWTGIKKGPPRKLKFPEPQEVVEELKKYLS
UniProt P15927: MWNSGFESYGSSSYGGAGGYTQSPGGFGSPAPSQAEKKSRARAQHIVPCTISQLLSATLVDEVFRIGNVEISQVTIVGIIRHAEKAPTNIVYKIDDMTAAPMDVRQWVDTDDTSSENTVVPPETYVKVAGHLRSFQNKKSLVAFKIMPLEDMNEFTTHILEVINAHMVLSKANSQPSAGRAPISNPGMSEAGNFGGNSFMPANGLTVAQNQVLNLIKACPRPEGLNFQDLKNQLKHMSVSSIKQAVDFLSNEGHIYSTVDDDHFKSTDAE
UniProt Q96EE3: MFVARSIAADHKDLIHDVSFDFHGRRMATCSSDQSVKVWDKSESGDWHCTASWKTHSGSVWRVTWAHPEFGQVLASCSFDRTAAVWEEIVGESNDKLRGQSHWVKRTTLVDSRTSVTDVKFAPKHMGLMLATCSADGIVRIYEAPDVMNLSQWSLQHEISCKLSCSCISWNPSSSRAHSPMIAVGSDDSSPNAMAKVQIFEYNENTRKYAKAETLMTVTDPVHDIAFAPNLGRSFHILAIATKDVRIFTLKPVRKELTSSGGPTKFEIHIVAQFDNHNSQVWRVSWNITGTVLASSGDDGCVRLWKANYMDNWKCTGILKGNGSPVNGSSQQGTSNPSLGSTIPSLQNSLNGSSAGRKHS
UniProt O95486: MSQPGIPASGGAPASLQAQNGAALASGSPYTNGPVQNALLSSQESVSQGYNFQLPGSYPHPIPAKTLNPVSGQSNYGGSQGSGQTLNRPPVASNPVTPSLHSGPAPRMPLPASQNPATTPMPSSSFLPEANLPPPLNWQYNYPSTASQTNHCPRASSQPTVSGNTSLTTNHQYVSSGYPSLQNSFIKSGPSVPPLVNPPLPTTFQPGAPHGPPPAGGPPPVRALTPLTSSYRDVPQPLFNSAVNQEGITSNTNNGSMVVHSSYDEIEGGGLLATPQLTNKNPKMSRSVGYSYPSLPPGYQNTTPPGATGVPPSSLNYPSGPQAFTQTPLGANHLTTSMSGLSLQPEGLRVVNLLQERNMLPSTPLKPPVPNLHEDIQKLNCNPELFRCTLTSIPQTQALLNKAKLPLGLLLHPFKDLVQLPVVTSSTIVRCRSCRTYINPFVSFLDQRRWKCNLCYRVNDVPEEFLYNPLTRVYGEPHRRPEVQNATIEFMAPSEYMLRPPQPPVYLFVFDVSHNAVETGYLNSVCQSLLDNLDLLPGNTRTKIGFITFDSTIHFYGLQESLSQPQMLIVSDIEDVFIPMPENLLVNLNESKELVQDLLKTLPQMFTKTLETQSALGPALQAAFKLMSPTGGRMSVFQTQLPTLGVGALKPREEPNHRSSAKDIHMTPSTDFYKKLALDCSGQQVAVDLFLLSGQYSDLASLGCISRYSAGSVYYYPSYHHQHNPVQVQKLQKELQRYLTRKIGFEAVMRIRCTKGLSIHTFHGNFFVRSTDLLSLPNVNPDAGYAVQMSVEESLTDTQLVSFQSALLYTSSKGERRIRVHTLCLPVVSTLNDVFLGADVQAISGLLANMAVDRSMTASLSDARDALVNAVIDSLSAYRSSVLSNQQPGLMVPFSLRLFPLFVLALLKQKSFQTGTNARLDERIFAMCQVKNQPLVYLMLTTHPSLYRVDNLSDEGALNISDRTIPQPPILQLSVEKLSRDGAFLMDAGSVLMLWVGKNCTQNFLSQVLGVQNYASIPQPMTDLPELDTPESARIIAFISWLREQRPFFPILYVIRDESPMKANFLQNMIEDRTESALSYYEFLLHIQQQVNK
UniProt O43665: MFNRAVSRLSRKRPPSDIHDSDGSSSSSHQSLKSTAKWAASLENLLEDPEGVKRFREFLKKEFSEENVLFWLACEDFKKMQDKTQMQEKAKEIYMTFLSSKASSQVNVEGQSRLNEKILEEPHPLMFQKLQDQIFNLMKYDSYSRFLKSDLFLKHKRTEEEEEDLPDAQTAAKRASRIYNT
UniProt O75695: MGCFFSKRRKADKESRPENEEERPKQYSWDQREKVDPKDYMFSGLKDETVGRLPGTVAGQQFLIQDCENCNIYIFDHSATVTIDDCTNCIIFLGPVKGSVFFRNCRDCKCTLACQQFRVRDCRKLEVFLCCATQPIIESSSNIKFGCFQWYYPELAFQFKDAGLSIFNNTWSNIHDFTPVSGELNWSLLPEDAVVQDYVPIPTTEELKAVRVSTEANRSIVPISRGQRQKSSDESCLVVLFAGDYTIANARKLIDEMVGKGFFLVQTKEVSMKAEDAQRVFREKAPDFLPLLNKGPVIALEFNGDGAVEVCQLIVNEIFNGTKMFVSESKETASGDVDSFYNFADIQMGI
UniProt Q9Y3B8: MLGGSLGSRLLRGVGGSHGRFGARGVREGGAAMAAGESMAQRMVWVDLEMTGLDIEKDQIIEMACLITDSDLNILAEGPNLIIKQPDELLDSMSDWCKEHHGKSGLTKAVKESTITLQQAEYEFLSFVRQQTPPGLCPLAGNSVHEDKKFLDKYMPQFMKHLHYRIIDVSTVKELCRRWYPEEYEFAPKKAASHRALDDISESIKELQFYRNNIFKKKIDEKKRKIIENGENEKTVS
UniProt O75150, whole entry: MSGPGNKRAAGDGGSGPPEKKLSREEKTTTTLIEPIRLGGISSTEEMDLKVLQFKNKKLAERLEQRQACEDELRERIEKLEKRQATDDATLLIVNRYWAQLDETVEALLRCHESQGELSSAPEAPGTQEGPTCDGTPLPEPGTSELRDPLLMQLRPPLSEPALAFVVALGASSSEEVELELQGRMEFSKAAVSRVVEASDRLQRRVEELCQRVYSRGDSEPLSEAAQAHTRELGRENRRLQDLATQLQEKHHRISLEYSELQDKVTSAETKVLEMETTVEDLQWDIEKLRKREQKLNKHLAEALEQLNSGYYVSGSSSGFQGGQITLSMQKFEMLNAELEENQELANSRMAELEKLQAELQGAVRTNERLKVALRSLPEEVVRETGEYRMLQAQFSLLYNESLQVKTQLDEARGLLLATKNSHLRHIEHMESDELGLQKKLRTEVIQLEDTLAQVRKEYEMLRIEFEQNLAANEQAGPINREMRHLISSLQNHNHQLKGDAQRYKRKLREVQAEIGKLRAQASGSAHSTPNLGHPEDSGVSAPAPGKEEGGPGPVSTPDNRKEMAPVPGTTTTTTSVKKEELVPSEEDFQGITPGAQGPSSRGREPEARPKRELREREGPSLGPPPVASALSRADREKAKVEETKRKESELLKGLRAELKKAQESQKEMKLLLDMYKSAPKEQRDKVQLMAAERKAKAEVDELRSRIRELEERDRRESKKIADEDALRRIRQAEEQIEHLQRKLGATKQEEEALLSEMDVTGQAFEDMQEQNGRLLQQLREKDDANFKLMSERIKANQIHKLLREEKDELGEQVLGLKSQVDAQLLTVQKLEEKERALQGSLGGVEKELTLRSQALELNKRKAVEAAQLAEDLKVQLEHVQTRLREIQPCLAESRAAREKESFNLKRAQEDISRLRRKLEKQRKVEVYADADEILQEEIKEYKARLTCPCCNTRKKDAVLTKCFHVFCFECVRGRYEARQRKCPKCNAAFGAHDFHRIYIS
UniProt Q92599: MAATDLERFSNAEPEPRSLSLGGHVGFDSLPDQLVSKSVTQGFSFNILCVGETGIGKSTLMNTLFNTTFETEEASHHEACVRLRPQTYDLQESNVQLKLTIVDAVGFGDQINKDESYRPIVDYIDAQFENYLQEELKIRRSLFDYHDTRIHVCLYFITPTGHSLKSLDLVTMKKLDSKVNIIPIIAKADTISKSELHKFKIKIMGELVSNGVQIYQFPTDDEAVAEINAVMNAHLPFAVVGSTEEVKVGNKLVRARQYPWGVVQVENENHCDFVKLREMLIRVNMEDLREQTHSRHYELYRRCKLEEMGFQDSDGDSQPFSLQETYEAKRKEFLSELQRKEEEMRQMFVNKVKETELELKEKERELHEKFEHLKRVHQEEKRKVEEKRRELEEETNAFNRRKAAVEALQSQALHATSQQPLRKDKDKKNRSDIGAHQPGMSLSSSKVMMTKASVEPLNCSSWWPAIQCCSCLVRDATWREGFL
UniProt Q01105, whole entry: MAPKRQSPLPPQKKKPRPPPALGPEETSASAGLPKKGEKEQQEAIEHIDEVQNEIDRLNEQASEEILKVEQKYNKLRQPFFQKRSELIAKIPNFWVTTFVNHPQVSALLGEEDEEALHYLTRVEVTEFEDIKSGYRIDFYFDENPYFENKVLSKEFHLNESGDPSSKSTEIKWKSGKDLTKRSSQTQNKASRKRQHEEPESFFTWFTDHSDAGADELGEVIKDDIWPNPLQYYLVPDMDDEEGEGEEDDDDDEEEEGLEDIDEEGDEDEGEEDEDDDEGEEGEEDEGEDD

| Target | dose-dependent thermal stabilisation call |
| --- | --- |
| RYDEN (UniProt Q9NUL5) | inactive: 0 |
| SEPHS2 (UniProt Q99611) | inactive: 0 |
| RIF1 (UniProt Q5UIP0) | inactive: 0 |
| RNF166 (UniProt Q96A37) | inactive: 0 |
| RHOC (UniProt P08134) | active: 1 |
| SETMAR (UniProt Q53H47) | inactive: 0 |
| RTFDC1 (UniProt Q9BY42) | inactive: 0 |
| SF3B1 (UniProt O75533) | inactive: 0 |
| RPS5 (UniProt P46782) | inactive: 0 |
| SARNP (UniProt P82979) | inactive: 0 |
| RPAIN (UniProt Q86UA6) | inactive: 0 |
| RUNX3 (UniProt Q13761) | inactive: 0 |
| SF1 (UniProt Q15637) | inactive: 0 |
| SDF4 (UniProt Q9BRK5) | inactive: 0 |
| RPIA (UniProt P49247) | inactive: 0 |
| RTCA (UniProt O00442) | active: 1 |
| SALL2 (UniProt Q9Y467) | inactive: 0 |
| SELENOH (UniProt Q8IZQ5) | inactive: 0 |

A different layout for some results above.
Target	dose-dependent thermal stabilisation call
RYDEN (UniProt Q9NUL5)	inactive: 0
SEPHS2 (UniProt Q99611)	inactive: 0
SETMAR (UniProt Q53H47)	inactive: 0
RTFDC1 (UniProt Q9BY42)	inactive: 0
SF3B1 (UniProt O75533)	inactive: 0
RPS5 (UniProt P46782)	inactive: 0
RUNX3 (UniProt Q13761)	inactive: 0
RTCA (UniProt O00442)	active: 1
SALL2 (UniProt Q9Y467)	inactive: 0

The results go on.

| Target | dose-dependent thermal stabilisation call |
| --- | --- |
| RPAP3 (UniProt Q9H6T3) | inactive: 0 |
| RPS19 (UniProt P39019) | inactive: 0 |
| RPA2 (UniProt P15927) | inactive: 0 |
| SEH1L (UniProt Q96EE3) | inactive: 0 |
| RPS3 (UniProt P23396) | inactive: 0 |
| RPL6 (UniProt Q02878) | inactive: 0 |
| SEC24A (UniProt O95486) | active: 1 |
| RGS10 (UniProt O43665) | inactive: 0 |
| RP2 (UniProt O75695) | active: 1 |
| REXO2 (UniProt Q9Y3B8) | inactive: 0 |
| RRP12 (UniProt Q5JTH9) | inactive: 0 |
| RNF2 (UniProt Q99496) | inactive: 0 |
| RNF40 (UniProt O75150) | inactive: 0 |
| SELL (UniProt P14151) | inactive: 0 |
| RPL10A (UniProt P62906) | inactive: 0 |
| SEPTIN8 (UniProt Q92599) | inactive: 0 |
| SET (UniProt Q01105) | inactive: 0 |
| SEC24C (UniProt P53992) | inactive: 0 |

Source: the supplement of paper PMC7666118
